Experimental data as given in article PMC7980222.

Sequences of proteins named here, by UniProt entry; tags and fusion partners are left off. Residues count along the entry.
UniProt Q9UBB5, 139-224: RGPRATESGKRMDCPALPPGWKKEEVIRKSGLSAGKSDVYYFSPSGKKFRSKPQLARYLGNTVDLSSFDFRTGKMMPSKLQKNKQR

Target: MBD2[MBD] (human) (UniProt Q9UBB5)
Assay: EMSA
Conditions: 2 uM protein, poly(dI-dC); N-term EMSA: 10 mM Tris-HCl pH 7.5, 150 mM KCl, 5% glycerol, 0.1 mM EDTA, 0.1 mg/ml BSA, 1 ug poly(dA-dT), on ice; pull-down at 4 C; recombinant protein; residues 139-224; label: 5'-FAM on strand 1

Row | Sequence | binding result
1 | TCTGGAACATAATTCTTCTA / ATAGAAGAATTATGTTCCAG [FAM CAT probe, unmethylated] | no binding
2 | TCTGGAACGGAATTCTTCTA / ATAGAAGAATTCCGTTCCAG [FAM CG probe, unmethylated] | no binding
3 | TCTGGAACACAATTCTTCTA / ATAGAAGAATTGTGTTCCAG [FAM CAC probe, unmethylated] | no binding

No signal at the amounts used counts as a negative. At least one verdict was read from the data and is not stated in words by the source.
